Reference: PubChem BioAssay AID1273 (Columbia University Molecular Screening Center, 2008)
Some of the results follow.

assay: insulin gene promoter suppression in islet cells – imaging, TRM-6 cells (human fetal islet line), eGFP reporter, cell count, primary screen (AID 1273;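 also: cells exposed to compound for 48 h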); details: measured here: cell count, toxicity, at 2 µM, reporter expression induced with tamoxifen

Question: For `CCOc1ncccc1C(=O)NCC1(N2CCOCC2)CCCCC1`, which normalized cell count is on record?
Answer: The normalized cell count was 111%.

Question: With `CC(C)(C)OC(=O)N1CCC(Nc2ccccc2)CC1` as the molecule, how does the normalized cell count read?
Answer: The normalized cell count was 78.7%.

Question: For `CCC(CO)(C(=O)OC1CN2CCC1CC2)c1ccccc1` (centres undefined), which normalized cell count is on record?
Answer: The normalized cell count was 124%.

Question: With `CCN1CCC(Nc2cccc(F)c2)CC1` as the molecule, how does the normalized cell count read?
Answer: The normalized cell count was 90.3%.

Question: For `CN(C)c1ccc(C(=O)NCC2(N3CCCCC3)CCCCC2)cc1`, which normalized cell count is on record?
Answer: Its normalized cell count is 77.5%.

Question: For `N#Cc1ccc(C(=O)NCC2(N3CCCCC3)CCCCC2)cc1`, which normalized cell count is on record?
Answer: Its normalized cell count is 119%.

Question: With `c1ccc(CN2CCC(Nc3ccccc3)CC2)cc1` as the molecule, how does the normalized cell count read?
Answer: The normalized cell count was 84.5%.

Question: Which normalized cell count does the source give for `COc1ccc(C(=O)NCC2(N3CCOCC3)CCCCC2)cc1OC` here?
Answer: Its normalized cell count is 137%.

Question: For `N/C(=N\O)c1c(N)no[n+]1[O-]`, which normalized cell count is on record?
Answer: The normalized cell count was 67.8%.

Question: With `O=C(OC1CN2CCC1CC2)C1c2ccccc2C=Cc2ccccc21` (centres undefined) as the molecule, how does the normalized cell count read?
Answer: Its normalized cell count is 111%.

Question: For `COc1ccc(CN(CCCl)CCCl)cc1Cl`, which normalized cell count is on record?
Answer: Its normalized cell count is 88.1%.

Question: With `CC(C)c1ccc(NC2CCN(C(=O)OC(C)(C)C)CC2)cc1` as the molecule, how does the normalized cell count read?
Answer: Its normalized cell count is 94.9%.

Question: Which normalized cell count does the source give for `CN1CCC(Nc2cccc(F)c2)CC1` here?
Answer: Its normalized cell count is 69.3%.

Question: For `CN1CCN(CCOC(=O)C(O)(c2ccccc2)c2ccccc2)CC1`, which normalized cell count is on record?
Answer: The normalized cell count was 215%.

Question: With `COc1ccc(NC2CCN(C(=O)OC(C)(C)C)CC2)cc1` as the molecule, how does the normalized cell count read?
Answer: The normalized cell count was 32.6%.

Question: With `O=C(NCC1(N2CCOCC2)CCCCC1)c1cc(=O)[nH]c2ccccc12` as the molecule, how does the normalized cell count read?
Answer: Its normalized cell count is 115%.

Question: Which normalized cell count does the source give for `COc1ccc(C(=O)NCC2(N3CCCCC3)CCCCC2)c(OC)c1OC` here?
Answer: Its normalized cell count is 106%.

Question: With `O=C(NCC1(N2CCOCC2)CCCCC1)c1cc2ccccc2o1` as the molecule, how does the normalized cell count read?
Answer: Its normalized cell count is 71.9%.

Question: Which normalized cell count does the source give for `O=C(OC1CN2CCC1CC2)C1c2ccccc2Oc2ccccc21` (centres undefined) here?
Answer: Its normalized cell count is 104%.
